Results taken from PubChem BioAssay AID504444 (National Center for Advancing Translational Sciences (NCATS), 2011).
About 7,500 (2.1%) of roughly 360,000 compounds were called active. Inconclusive results, whose numbers are uncertain, are shown with a selection of clear calls. Calls follow the shape of the dose curve; as a rule, active = well fitted inhibition curve with a large enough effect; inconclusive = small, poorly fitted or top-dose-only effect, or effect the other way; inactive = flat fitted curve, though single readings scatter. Potencies of inconclusive entries are doubtful fits and often do not repeat.

assay: Nrf2 qHTS screen for inhibitors; settings: A549 ARE-Fluc reporter, luciferase luminescence, 18-24 h; activity change, negative = inhibition: at 46 µM (top of the series); also: nearly all actives have a fitted effect of over 60% in size
In short: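 Nrf2 activity is the BugLite luminescence, read 15 min after reagent at room temperature, following CellTiter-Fluor cytotoxicity readout (30 min, 37C). Compound titrations were applied for 18-24 h to 5000 A549 ARE_Fluc cells/well in 5% FBS OPTI-MEM.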
% is scaled to controls: 0 for no effect and ±100 for the full control effect; potency is read from the fitted curve at half-maximal effect.

Compound | Potency | activity change, negative = inhibition
Cn1nnc2c[n+](CC(=O)c3ccc(Cl)cc3)cc(Br)c21 | inconclusive: 29.1 µM [activator, single point] | –
COc1ccc(OC(=O)c2cc(-c3ccc4c(c3)OCCO4)on2)cc1 | – | inactive: 9.31%
Cc1ccc2c(CNCCc3ccco3)c(C(=O)O)n(Cc3ccc(F)cc3)c2c1 | inconclusive: 29.1 µM [activator, single point] | –
COC(=O)c1sc(N)c(C(=O)OC)c1COC(=O)C1CC(=O)N(Cc2ccco2)C1 (stereo not given) | – | inactive: 7.52%
FC(F)(F)c1nnc(Nc2ccc(Cl)cc2)s1 | – | inactive: -9.87%
CSc1nc(N)cc(=O)[nH]1 | inconclusive: 20.6 µM [falling, single point] | –
CCOc1ccc(CN(CCc2ccc3c(c2)OCO3)Cc2cc(OC)cc(OC)c2)cc1 | – | inactive: 19.7%
COc1ccc2nc(SCC(=O)N(C)C3CCCCC3)c(C#N)cc2c1 | inconclusive: 32.6 µM [falling, single point] | –
Cc1occc1C(=O)NN=C1C2CC3CC(C2)CC1C3 | inconclusive: 14.6 µM [activator, single point] | –
CCc1ccc(OCc2n[nH]c(=S)n2Cc2ccccc2)cc1 | – | inactive: -2.85%
CC(C)CC(=O)NN(C)c1nc(-c2ccccc2)nnc1C(F)(F)F | – | inactive: -18.6%
COc1ccc(CN(CC2CCC(C(=O)O)CC2)C(=S)Nc2cc(C)ccc2C)cc1 (stereo not given) | inconclusive: 29.1 µM [falling, single point] | –
CCN1CCC(N(Cc2ccc(F)cc2)C(=O)Nc2ccc(C)c(F)c2)CC1 | – | inactive: 10.9%
COc1ccc(C(=O)Nc2ccc(-c3nc4cc(C)ccc4o3)c(O)c2)cc1 | inconclusive: 18.4 µM [falling, partial curve, poor fit] | –
Cn1c(N)c(C(=O)COC(=O)C2(c3ccc(Cl)cc3)CCCC2)c(=O)n(C)c1=O | active: 18.4 µM | –
CCOC(=O)C1=C(C)Nc2sc(C(=O)c3ccc(F)cc3)c(N)c2C1c1ccc(C(=O)OC)cc1 (stereo not given) | inconclusive: 29.1 µM [falling, single point] | –
CCc1ccc2[nH]c3nc(SCc4nnc(-c5ccccc5)o4)nnc3c2c1 | – | inactive: -5.28%
O=C(CCC(=O)N1CCOc2ccccc21)NCc1cccs1 | – | inactive: 17.8%
O=C(O)c1ccc(CSc2nnnn2-c2ccc(F)cc2)cc1 | – | inactive: -18.8%
CCc1ccc(NC(=O)C2CCN(S(=O)(=O)c3ccc4c(c3)CC(C)N4C(C)=O)CC2)cc1 (stereo not given) | active: 16.4 µM | –
Cn1nc(C(=O)Nc2ccc(Cl)c(S(=O)(=O)N3CCOCC3)c2)c2ccccc2c1=O | inconclusive: 32.6 µM [falling, partial curve, poor fit] | –
Cc1ccc2[nH]c3c(=O)n(CC(=O)N4CCN(c5ccccc5F)CC4)ncc3c2c1 | inconclusive: 29.1 µM [activator, single point] | –
COc1ccc(CN2CCc3c([nH]c4ccccc34)C2)c(OC)c1C | – | inactive: -0.917%

3 entries from above, arranged by molar mass, high to low:
Compound | Potency | activity change, negative = inhibition
Cn1c(N)c(C(=O)COC(=O)C2(c3ccc(Cl)cc3)CCCC2)c(=O)n(C)c1=O | active: 18.4 µM | –
CCN1CCC(N(Cc2ccc(F)cc2)C(=O)Nc2ccc(C)c(F)c2)CC1 | – | inactive: 10.9%
COc1ccc(OC(=O)c2cc(-c3ccc4c(c3)OCCO4)on2)cc1 | – | inactive: 9.31%

Continuation:

Compound | Potency | activity change, negative = inhibition
Cc1cc(N2CCN(C)CC2)nc2ccc(NC(=O)Nc3ccc(F)cc3)cc12 | inconclusive: 29.1 µM [falling, single point] | –
OCCOCCn1c(CCNc2nc(-c3ccc(F)cc3)cs2)nc2cc(C(F)(F)F)ccc21 | inconclusive: 29.1 µM [falling, single point] | –
CCN1CCN(Cc2ccc(NC(=O)c3cc(NC(=O)c4cc5cccc(OC)c5o4)cc(OC)c3)cc2C(F)(F)F)CC1 | – | inactive: 2.13%
COc1ccc(CCNC(=O)c2ccc3nc(-c4ccco4)c(-c4ccco4)nc3c2)cc1OC | active: 23.1 µM | –
O=S(=O)(NNc1ncc(C(F)(F)F)cc1Cl)c1ccc(F)cc1F | – | inactive: -2.4%
Brc1ccc(-c2cn3cc(Cc4ccccc4)sc3n2)cc1 | inconclusive: 1.16 µM [activator, full curve] | –
O=C(O)c1ccc(COc2ccc3ccccc3c2/C=C2/NC(=O)N(Cc3ccc(F)cc3)C2=O)cc1 | active: 20.6 µM | –
CCc1ccccc1NC(=O)CCS(=O)(=O)c1ccc2c(c1)CCCN2C(C)=O | – | inactive: 10.1%
Cc1cc(Nc2ccccc2)n(C(=O)c2ccc(Cl)cc2)n1 | inconclusive: 20.6 µM [activator, partial curve] | –
COc1ccc(/C=N\NC(=O)c2ccc([N+](=O)[O-])cc2)cc1COc1c(F)c(F)cc(F)c1F | inconclusive: 29.1 µM [falling, partial curve, poor fit] | –
CC(C)C[C@H](NC(=O)c1nc[nH]c1C(=O)NC1CCN(C(=O)OC(C)(C)C)CC1)C(=O)OCc1ccccc1 | – | inactive: 2.49%
CC(C)(C)N(CC(=O)NC1CCCCC1)C(=O)CS(=O)CC(=O)Nc1ccc(F)cc1 (stereo not given) | inconclusive: 20.6 µM [falling, partial curve, poor fit] | –
CCOC(=O)c1ccc(NC(=O)c2noc3c2CCCC3)cc1 | inconclusive: 0.92 µM [falling, full curve, poor fit] | –
COc1ccc(-c2nc(NC(=O)Cn3ccc(C(F)(F)F)n3)sc2C)cc1 | active: 20.6 µM | –
CC(C)(C)C(=O)NC(=S)Nc1ccc(Cc2ccncc2)cc1 | inconclusive: 25.9 µM [falling, partial curve, poor fit] | –
C=CCSc1nsc(NC(=O)Nc2ccc(F)cc2)n1 | inconclusive: 16.4 µM [falling, single point] | –
COc1ccccc1OCCCC(=O)Nc1nccs1 | inconclusive: 14.6 µM [activator, partial curve] | –
COc1cc(N)c(Cl)cc1C(=O)OCC(=O)c1ccc2c(c1)NC(=O)CO2 | inconclusive: 3.66 µM [activator, partial curve, poor fit] | –
S=C(NCc1ccccc1)NCc1ccc(Cl)cc1 | inconclusive: 9.2 µM [falling, partial curve, poor fit] | –
COc1cccc(NC(=O)c2ccc3c(c2)OCCO3)c1 | inconclusive: 6.51 µM [activator, partial curve, poor fit] | –
Cc1ccc(C(=O)NC2CCN(C(=O)NCc3ccccc3)CC2)cc1 | inconclusive: 20.6 µM [falling, single point] | –
CCOC(=O)CCc1c(C)c2cc3c(c(C)c2oc1=O)OCN(CCc1ccccc1OC)C3 | – | inactive: 12.2%
